Test results as given in patent EP4335867A1.
No constants are given. Whether binding was seen depends on the method and setting. Some entries that bind do so weakly or less than the wild type.

Biological target: human transferrin receptor-Fc tag standard (human) (UniProt P02786)
Assay: ELISA on plate-bound hTfR-Fc with anti-His detection

B1: huHF_Mutant2-dual (designed binder, not shown: small tags and cut ends)
chain: MTTASTSQVRQNYHAASEAAINAQINLELYASYVYLSMSYYFDRDDVALKNFAKYFLHQSHEEREHAEKLMKLQNQRGGRIALADIQKPDCDDGGSYGSLYAFDIWESGLNAMECALHLEKNVNQSLLALHALATAKNDPHLCDFIETHYLNEQVKAIKELGDHVTNLRKMGAPESGLAEYLFDKHTLGDSDNESMPSFITLASLSTWEGYFDF
- binding: binds
